{"source": "PubChem BioAssay AID686943 (Drosophila RNAi Screening Center, 2013)", "test": "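Knockdowns that increase or decrease active ERK after insulin receptor stimulation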 (primary screen)", "system": "Drosophila S2R+ haemocyte-like cells expressing YFP-tagged ERK (Rolled)", "knock-down reagent": "long dsRNA against Drosophila genes", "treatment": "insulin stimulation versus unstimulated cells; dose and duration not given", "measured": "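Per-plate z-scores of phospho-ERK immunostaining normalised to YFP-tagged ERK, measured with and without insulin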", "reading the numbers": "replicate 1, z-score of dpERK with insulin and replicate 2, z-score of dpERK with insulin: higher = more active ERK per ERK-YFP after insulin", "note": "The deposit covers about 23,000 reagents; shown is a random part of those that have a named target and a result. 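Extra replicates exist only for a retested subset of genes; insulin dose and duration not given; both raised and lowered dpERK matter.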 Names joined by + are all predicted targets of the reagent. Not all columns of the deposit are shown. Not stated in the record: the amount of reagent, the time to read-out."}
{"target gene": "CG15643", "amplicon": "DRSC19679", "replicate 1, z-score of dpERK with insulin": 0.29, "replicate 2, z-score of dpERK with insulin": 0.71}
{"target gene": "CG33287", "amplicon": "DRSC22929", "replicate 1, z-score of dpERK with insulin": 0.34, "replicate 2, z-score of dpERK with insulin": 0.22}
{"target gene": "Fign (Fidgetin)", "amplicon": "DRSC00592", "replicate 1, z-score of dpERK with insulin": -0.11, "replicate 2, z-score of dpERK with insulin": -0.03}
{"target gene": "AkhR (Adipokinetic hormone receptor)", "amplicon": "DRSC03329", "replicate 1, z-score of dpERK with insulin": -0.47, "replicate 2, z-score of dpERK with insulin": -0.11}
{"target gene": "Sap30 (SIN3-associated polypeptide 30)", "amplicon": "DRSC19916", "replicate 1, z-score of dpERK with insulin": -0.65, "replicate 2, z-score of dpERK with insulin": -0.28}
{"target gene": "CG44014 + CG44013", "amplicon": "DRSC14995", "replicate 1, z-score of dpERK with insulin": -0.05, "replicate 2, z-score of dpERK with insulin": -1.49}
{"target gene": "yellow-d", "amplicon": "DRSC04589", "replicate 1, z-score of dpERK with insulin": 0.67, "replicate 2, z-score of dpERK with insulin": -0.47}
{"target gene": "CG17776", "amplicon": "DRSC18136", "replicate 1, z-score of dpERK with insulin": -0.08, "replicate 2, z-score of dpERK with insulin": 0}
{"target gene": "CG15498", "amplicon": "DRSC15040", "replicate 1, z-score of dpERK with insulin": 0.12, "replicate 2, z-score of dpERK with insulin": 0.2}
{"target gene": "PRL-1 (PRL-1 phosphatase)", "amplicon": "DRSC03393", "replicate 1, z-score of dpERK with insulin": -0.11, "replicate 2, z-score of dpERK with insulin": 0.58}
{"target gene": "CG30324", "amplicon": "DRSC22655", "replicate 1, z-score of dpERK with insulin": 0.07, "replicate 2, z-score of dpERK with insulin": 0.44}
{"target gene": "Nmd3 (Nonsense-mediated mRNA 3)", "amplicon": "DRSC18687", "replicate 1, z-score of dpERK with insulin": 0.42, "replicate 2, z-score of dpERK with insulin": 1.08}
{"target gene": "Nmd3 (Nonsense-mediated mRNA 3)", "amplicon": "DRSC22834", "replicate 1, z-score of dpERK with insulin": -0.1, "replicate 2, z-score of dpERK with insulin": -0.14}
{"target gene": "AgmNAT (Agmatine N-acetyltransferase)", "amplicon": "DRSC18072", "replicate 1, z-score of dpERK with insulin": 0.31, "replicate 2, z-score of dpERK with insulin": 0.28}
{"target gene": "CG12784", "amplicon": "DRSC14539", "replicate 1, z-score of dpERK with insulin": -0.57, "replicate 2, z-score of dpERK with insulin": 1.53}
{"target gene": "pkm (Pinkman)", "amplicon": "DRSC19674", "replicate 1, z-score of dpERK with insulin": 0.01, "replicate 2, z-score of dpERK with insulin": -1.37}
{"target gene": "CG5254", "amplicon": "DRSC18611", "replicate 1, z-score of dpERK with insulin": -0.62, "replicate 2, z-score of dpERK with insulin": -0.11}
{"target gene": "CG4328", "amplicon": "DRSC10410", "replicate 1, z-score of dpERK with insulin": -4.23, "replicate 2, z-score of dpERK with insulin": -2.9}
{"target gene": "CG13026", "amplicon": "DRSC09906", "replicate 1, z-score of dpERK with insulin": -0.47, "replicate 2, z-score of dpERK with insulin": 0.09}
{"target gene": "CG15535", "amplicon": "DRSC15071", "replicate 1, z-score of dpERK with insulin": 0.55, "replicate 2, z-score of dpERK with insulin": 0.41}
{"target gene": "Mtp (Microsomal triacylglycerol transfer protein)", "amplicon": "DRSC03216", "replicate 1, z-score of dpERK with insulin": -0.46, "replicate 2, z-score of dpERK with insulin": 0.17}
{"target gene": "AP-1sigma (Adaptor Protein complex 1, sigma subunit)", "amplicon": "DRSC15899", "replicate 1, z-score of dpERK with insulin": 0.41, "replicate 2, z-score of dpERK with insulin": 0.17}
{"target gene": "CG18418", "amplicon": "DRSC08535", "replicate 1, z-score of dpERK with insulin": 1.32, "replicate 2, z-score of dpERK with insulin": 1.09}
{"target gene": "SpdS (Spermidine Synthase)", "amplicon": "DRSC16408", "replicate 1, z-score of dpERK with insulin": 0.3, "replicate 2, z-score of dpERK with insulin": 0.22}
{"target gene": "corto", "amplicon": "DRSC12040", "replicate 1, z-score of dpERK with insulin": 0.51, "replicate 2, z-score of dpERK with insulin": -0.63}
{"target gene": "corto", "amplicon": "DRSC12375", "replicate 1, z-score of dpERK with insulin": 0.8, "replicate 2, z-score of dpERK with insulin": 0.86}
{"target gene": "corto", "amplicon": "DRSC22279", "replicate 1, z-score of dpERK with insulin": -0.32, "replicate 2, z-score of dpERK with insulin": 0.46}
{"target gene": "CG13970", "amplicon": "DRSC02311", "replicate 1, z-score of dpERK with insulin": 0.22, "replicate 2, z-score of dpERK with insulin": 0.62}
{"target gene": "Mlc-c (Myosin light chain cytoplasmic)", "amplicon": "DRSC18683", "replicate 1, z-score of dpERK with insulin": -0.61, "replicate 2, z-score of dpERK with insulin": -0.58}
{"target gene": "mRpL47 (mitochondrial ribosomal protein L47)", "amplicon": "DRSC16827", "replicate 1, z-score of dpERK with insulin": -1.74, "replicate 2, z-score of dpERK with insulin": -0.19}
{"target gene": "IleRS (Isoleucyl-tRNA synthetase)", "amplicon": "DRSC11667", "replicate 1, z-score of dpERK with insulin": 0.27, "replicate 2, z-score of dpERK with insulin": 0.53}

Part of the list above, set out differently:
Sap30 (SIN3-associated polypeptide 30) [DRSC19916]
- replicate 1, z-score of dpERK with insulin: -0.65
- replicate 2, z-score of dpERK with insulin: -0.28

CG44014 + CG44013 [DRSC14995]
- replicate 1, z-score of dpERK with insulin: -0.05
- replicate 2, z-score of dpERK with insulin: -1.49

yellow-d [DRSC04589]
- replicate 1, z-score of dpERK with insulin: 0.67
- replicate 2, z-score of dpERK with insulin: -0.47

CG17776 [DRSC18136]
- replicate 1, z-score of dpERK with insulin: -0.08
- replicate 2, z-score of dpERK with insulin: 0

CG15498 [DRSC15040]
- replicate 1, z-score of dpERK with insulin: 0.12
- replicate 2, z-score of dpERK with insulin: 0.2
